{"sequences": {"note": "Amino acid sequences for entries named in this document (tags omitted). A change or cut given only in a name is not applied to a line headed by its entry.", "UniProt Q01638": "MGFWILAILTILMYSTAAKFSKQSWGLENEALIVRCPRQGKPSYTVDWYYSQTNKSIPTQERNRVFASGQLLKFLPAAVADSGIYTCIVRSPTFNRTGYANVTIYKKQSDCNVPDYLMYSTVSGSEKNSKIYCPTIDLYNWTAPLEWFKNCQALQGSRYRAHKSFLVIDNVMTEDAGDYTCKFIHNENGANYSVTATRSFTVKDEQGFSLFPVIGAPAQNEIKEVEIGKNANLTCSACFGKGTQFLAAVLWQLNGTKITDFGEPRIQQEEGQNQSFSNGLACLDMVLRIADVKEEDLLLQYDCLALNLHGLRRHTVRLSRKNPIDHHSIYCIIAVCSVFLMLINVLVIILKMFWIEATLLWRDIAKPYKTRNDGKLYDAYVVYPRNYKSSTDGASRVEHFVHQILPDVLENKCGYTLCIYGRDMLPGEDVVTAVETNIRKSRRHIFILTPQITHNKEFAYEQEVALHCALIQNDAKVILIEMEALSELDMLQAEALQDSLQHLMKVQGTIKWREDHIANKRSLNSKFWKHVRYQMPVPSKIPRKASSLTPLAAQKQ"}, "source": "PubChem BioAssay AID1259354", "about": "(Paczesny and Yang Labs, IUPUI and University of Michigan, 2018)", "note": "The whole screen tested about 78,000 compounds, of which about 1,800 (2.3%) were called active. The inconclusive results got no clear call from the source; some entries with a clear call stand among them for comparison. No stated cut-off is given here; in the data, active means inhibition above about 30%; inconclusive means mostly about 10% to 28%; inactive means weaker than that. The source holds several records for some structures; these can differ, active in one and inactive in another.", "data": [{"molecular_target": "Interleukin-1 receptor-like 1 (Homo sapiens) (UniProt Q01638)", "assay": "blocks human ST2 binding to IL-33, primary screen, biochemical, AlphaLISA (AID 1259354)", "conditions": "AlphaLISA ST2-Fc/biotin-IL-33 interaction, 1 h; at 17 µM, hits give high values", "values": [{"smiles": "Cc1cccc(-c2cnc(C)nc2C2CCCN(C(=O)c3cc4cc(C)ccc4[nH]3)C2)c1", "note": "(centres undefined)", "inhibition": "inconclusive: 11%"}, {"smiles": "CCc1nc(SCC(=O)Nc2ccccc2)c(C#N)cc1C", "inhibition": "inconclusive: 15%"}, {"smiles": "Cn1nc(C2CCCN(C(=O)c3ccc[nH]c3=O)C2)n(-c2ccccc2)c1=O", "note": "(centres undefined)", "inhibition": "inactive"}, {"smiles": "CCc1ccc(-c2nccn2CCCn2ccnc2)nc1", "inhibition": "inconclusive: 13%"}, {"smiles": "COc1cc(/C=C2/C(=O)N(c3ccc(Cl)c(Cl)c3)N=C2C)cc(OC)c1OC", "inhibition": "active: 55%"}, {"smiles": "COc1ccc(Cl)cc1NC(=O)c1cc(CC(C)C)on1", "inhibition": "inconclusive: 10%"}, {"smiles": "O=S(=O)(NCc1ccc(F)cc1)c1cccc2cccnc12", "inhibition": "inactive"}, {"smiles": "CCN(c1ccc(C)c(C)c1)S(=O)(=O)c1cccc2cccnc12", "inhibition": "inactive"}, {"smiles": "CCOC(=O)c1cccc(NC(=O)C2CCN(c3ccc(-c4cccs4)nn3)CC2)c1", "inhibition": "inconclusive: 23%"}, {"smiles": "CCCN(c1ccc(C(C)C)cc1)S(=O)(=O)c1cccc2nonc12", "inhibition": "inconclusive: 20%"}, {"smiles": "Cc1nc(C(C)C)ncc1C(=O)N[C@@H]1C[C@H]2C(=O)N(C)CC(=O)N2C1", "inhibition": "inconclusive: 29%"}, {"smiles": "COc1ccc2cc(C(=O)C3CCCN(CCn4cc[nH]c4=O)C3)ccc2c1", "note": "(centres undefined)", "inhibition": "inconclusive: 12%"}, {"smiles": "O=C(c1cccc(N2CCNC2=O)c1)N1CCn2cncc2C1", "inhibition": "inconclusive: 22%"}, {"smiles": "O=C(c1cc(-n2cnnn2)ccc1O)N1CCCC(CCc2ccc(F)cc2)C1", "note": "(centres undefined)", "inhibition": "inconclusive: 11%"}, {"smiles": "OC(COc1ccc(C2CCCCC2)cc1)CN1CCCCC1", "note": "(centres undefined)", "inhibition": "inactive"}, {"smiles": "Cc1ccc(-n2c(SC(C)C)nc3c(c2=O)SCC3)cc1", "inhibition": "active: 36%", "outcome": "inactive"}, {"smiles": "CC1CN(C(=O)COc2ccccc2)C(C)CN1C(=O)COc1ccccc1", "note": "(centres undefined)", "inhibition": "inactive"}, {"smiles": "Cc1ccc(Cn2c(=O)n(CC(=O)NCc3ccco3)c(=O)c3sccc32)cc1", "inhibition": "inconclusive: 12%"}, {"smiles": "Cc1ccc(CN(C(=O)c2cc(=O)[nH][nH]2)C2CC2)s1", "inhibition": "inactive"}, {"smiles": "Cc1ccc(OCC(=O)Nc2cccc(C(F)(F)F)c2)c(C)c1", "inhibition": "inactive"}, {"smiles": "Cc1c(C)n(C(=O)CSc2nnc(N)s2)c2ccccc12", "inhibition": "inconclusive: 10%"}, {"smiles": "CC(CCn1cccn1)n1ccnc1-c1ccc2occc2c1", "note": "(centres undefined)", "inhibition": "inactive"}, {"smiles": "CC(C)Cn1c(CN2CCC(CN)C2)nc2ccccc21", "note": "(centres undefined)", "inhibition": "inactive"}, {"smiles": "CCSc1nc2c(c(=O)[nH]1)C(c1ccc(F)cc1)C(C(=O)OC)=C(C)N2", "note": "(centres undefined)", "inhibition": "inconclusive: 10%"}, {"smiles": "CCOc1cc2c(cc1CN1CC[C@H](CO)[C@@H](O)C1)CCC2", "inhibition": "inactive"}, {"smiles": "CCN1C(=O)c2ccc(C(=O)Nc3ccc(Br)cc3C)cc2C1=O", "inhibition": "inactive"}, {"smiles": "Cc1ccc(Oc2ncccc2CNC(=O)c2ccc3occc3c2)cn1", "inhibition": "inactive"}, {"smiles": "O=C1CCN(c2cccc(Cl)c2)N1", "inhibition": "inactive"}, {"smiles": "Cc1ccc(-c2csc(/C(C#N)=C/c3ccc(Br)o3)n2)c(C)c1", "inhibition": "active: 60%"}, {"smiles": "Cc1nnc(Sc2cc(C(=O)NCc3cccnc3)c3ccccc3n2)s1", "inhibition": "inconclusive: 27%"}, {"smiles": "Cc1nc(C(C)C)sc1C(=O)N1CCN(c2ncccn2)CC1C(=O)O", "note": "(centres undefined)", "inhibition": "inconclusive: 11%"}, {"smiles": "Cc1nc2nc(-c3ccccc3)cn2nc1C", "inhibition": "inconclusive: 13%"}, {"smiles": "CC(C)C[C@@H](NC(=O)C1=C[C@@H](NC(=O)c2cnccn2)[C@@H](O)[C@H](O)C1)C(N)=O", "inhibition": "inactive"}, {"smiles": "N#C/C(=C\\c1ccc(Br)o1)c1nc(-c2ccc(Cl)cc2)cs1", "inhibition": "active: 31%"}, {"smiles": "CC(Nc1nc(CCN)nc2ccccc12)c1ccccc1-n1cccn1", "note": "(centres undefined)", "inhibition": "inconclusive: 12%"}, {"smiles": "CCOc1ccc(C(=O)N2CCN(c3ncccn3)CC2)cc1", "inhibition": "inconclusive: 24%"}, {"smiles": "Cc1nc(N[C@@H](CO)Cc2ccccc2)c2cnn(C)c2n1", "inhibition": "inactive"}, {"smiles": "O=C(Nc1ccccc1-c1nc2ccccc2s1)c1ccc(S(=O)(=O)N2CCCC2)cc1", "inhibition": "inconclusive: 15%"}, {"smiles": "O=C(CC(=O)N1CCC[C@H]1CO)NC12CC3CC(CC(C3)C1)C2", "inhibition": "inactive"}, {"smiles": "Cc1ccc(CN2CCCN(CC(=O)Nc3ccc4c(c3)OCO4)S2(=O)=O)cc1", "inhibition": "inconclusive: 10%"}, {"smiles": "O=C(NCCSc1c[nH]c2ccccc12)c1cccc(F)c1", "inhibition": "inconclusive: 12%"}, {"smiles": "c1csc(CN2CCCCCC2)c1", "inhibition": "inconclusive: 13%"}, {"smiles": "Oc1c(C=NCc2ccccc2Cl)[nH]c2ccc(Br)c(Cl)c12", "inhibition": "inconclusive: 18%"}, {"smiles": "CCOc1ccc(/C=C2\\N=C(c3ccccc3OC)OC2=O)cc1OCC", "inhibition": "active: 34%"}, {"smiles": "Cc1ccc2nc(CN(C)Cc3cnc(C)[nH]3)[nH]c2c1", "inhibition": "inactive"}, {"smiles": "CCOCCN1C(=O)COC[C@@H]1[C@H](O)c1ccc(NC(=O)Cc2ccc(OC)cc2)cc1", "inhibition": "inconclusive: 23%"}, {"smiles": "CC(C)CCNS(=O)(=O)c1cc(Br)cc2c1N(C(=O)C1CC1)CC2", "inhibition": "inconclusive: 11%"}, {"smiles": "CCSc1sc(SC#N)cc1SC#N", "inhibition": "active: 47%"}, {"smiles": "CC1=NN(c2ccc(Br)cc2)C(=O)/C1=C/c1cccs1", "inhibition": "active: 39%"}, {"smiles": "COc1ccc(O)c(CN2CCOCC2)c1", "inhibition": "inconclusive: 17%"}, {"smiles": "CCC(=O)N1c2ccccc2-c2nnc(SC)nc2OC1c1cc(OC)c(OC)c(OC)c1", "note": "(centres undefined)", "inhibition": "inconclusive: 17%"}, {"smiles": "CCC1CCCCN1S(=O)(=O)c1ccc(C(=O)Nc2nnc(-c3cccc(OC)c3)o2)cc1", "note": "(centres undefined)", "inhibition": "inconclusive: 11%"}, {"smiles": "CC[C@H]1CN(C(=O)C(C)(C)C)CC[C@H]1CC(=O)NCCOC", "inhibition": "inactive"}, {"smiles": "Cc1cccn2c(CC(=O)N(C)C(C)c3cccs3)cnc12", "note": "(centres undefined)", "inhibition": "inactive"}, {"smiles": "CCn1c2ccccc2c2nnc(SCC(=O)Nc3ncccn3)nc21", "inhibition": "inconclusive: 13%"}, {"smiles": "CN(C(=O)Cc1c(C(=O)O)[nH]c2ccc(Cl)cc12)c1ccccc1F", "inhibition": "inactive"}, {"smiles": "NCC1Cc2cc(-c3nccc4occc34)cc(Cl)c2O1", "note": "(centres undefined)", "inhibition": "inconclusive: 10%"}, {"smiles": "Cc1ccc2c(C)nc(Nc3nc(O)c(C)c(=O)[nH]3)nc2c1", "inhibition": "inconclusive: 14%"}, {"smiles": "O=C(COC(=O)c1cc(=O)[nH]c2ccccc12)c1ccc(OCc2ccccc2)cc1", "inhibition": "inactive"}, {"smiles": "Cc1cc(N2CCN(C)CC2)nc2ccc(NC(=O)CCC(=O)NCc3cccs3)cc12", "inhibition": "inactive"}, {"smiles": "CCCCNc1nc2c(c(=O)n(C)c(=O)n2C)n1Cc1ccc(Cl)cc1Cl", "inhibition": "inactive"}, {"smiles": "CCOc1nc2c(c(=O)n(C)c(=O)n2C)n1Cc1ccc(Cl)cc1Cl", "inhibition": "inconclusive: 27%"}, {"smiles": "Cc1cnccc1CN(C)C(=O)c1cccc(NC(=O)C2CCCO2)c1", "note": "(centres undefined)", "inhibition": "inactive"}, {"smiles": "COc1cc(C)c(Cl)cc1S(=O)(=O)N1CCN(c2nc(C)cc(N3CCOCC3)n2)CC1", "inhibition": "inconclusive: 14%"}, {"smiles": "COCCOC(=O)C1=C(C)NC2=C(C(=O)CC(c3ccccc3)C2)C1c1cccnc1", "note": "(centres undefined)", "inhibition": "inactive"}, {"smiles": "O=[N+]([O-])c1ccc(CN2CCN(c3ccccc3F)CC2)s1", "inhibition": "inconclusive: 14%"}, {"smiles": "COC(=O)c1nnn(CC(=O)Nc2ccc(Br)cc2)c1N", "inhibition": "inconclusive: 10%"}, {"smiles": "c1csc(CN(Cc2ccsc2)CC2CCCO2)n1", "note": "(centres undefined)", "inhibition": "inconclusive: 12%"}, {"smiles": "O=c1oc2ccccc2cc1-c1nc(-c2cccs2)cs1", "inhibition": "active: 51%"}, {"smiles": "COc1cccc(C(=O)Nc2ccc(Nc3nc(C)cc(Nc4ccc(C)cc4)n3)cc2)c1", "inhibition": "inactive"}, {"smiles": "CCN1C(=O)C2(OCCO2)c2cc([N+](=O)[O-])ccc21", "inhibition": "inactive"}, {"smiles": "O=C1N=C(N2CCCC2)S/C1=C\\c1ccc(Br)cc1", "inhibition": "inconclusive: 14%"}, {"smiles": "CC(CC(N)=O)c1ccccc1", "note": "(centres undefined)", "inhibition": "inconclusive: 10%"}, {"smiles": "O=C(Nc1ccccc1-c1ccccc1)c1ccccc1[N+](=O)[O-]", "inhibition": "inactive"}, {"smiles": "NC(=O)c1cccc(CC2CCN(C(=O)CCCn3cccn3)C2)c1", "note": "(centres undefined)", "inhibition": "inconclusive: 13%"}, {"smiles": "COc1ccc(-c2noc([C@@H]3C[C@@H](O)CN3Cc3cccc(C#N)c3)n2)cc1", "inhibition": "active: 58%"}, {"smiles": "CCOc1ccc(N2CC(NC(=O)Cc3ccccc3)CC2=O)cc1", "note": "(centres undefined)", "inhibition": "inconclusive: 20%"}, {"smiles": "COc1ccc([N+](=O)[O-])cc1CSc1nnc(NC(C)=O)s1", "inhibition": "inconclusive: 23%"}, {"smiles": "CCCCn1c(C(C)NC(=O)c2cccs2)nc2ccccc21", "note": "(centres undefined)", "inhibition": "inconclusive: 10%"}, {"smiles": "CNC(=O)c1cccc(-c2cc(NCc3cccnc3)nc3[nH]ccc23)c1", "inhibition": "inactive"}, {"smiles": "CN1CC2(CCCN(Cc3noc(C(C)(C)C)n3)C2)OC1=O", "note": "(centres undefined)", "inhibition": "inconclusive: 26%"}, {"smiles": "O=C(Cn1cnc2c(cnn2-c2ccccc2)c1=O)c1ccccc1", "inhibition": "inconclusive: 14%"}, {"smiles": "O=C1N(C2Cc3ccccc3C2)C[C@@H]2C[C@@H](c3cccc4c3OCO4)N3CCC[C@@]123", "inhibition": "inconclusive: 16%"}, {"smiles": "CCOC(=O)c1cccc(N2C(=O)C3C4c5ccccc5C(C)(c5ccccc54)C3C2=O)c1", "note": "(centres undefined)", "inhibition": "inactive"}, {"smiles": "Cc1cc(C)cc(N2CCn3c2nc2c3c(=O)n(C)c(=O)n2C)c1", "inhibition": "inactive"}, {"smiles": "c1cn2c(Nc3ccc4c(c3)OCCO4)c(-c3ccc(N4CCOCC4)cc3)nc2cn1", "inhibition": "inconclusive: 10%"}, {"smiles": "COc1ccc(N=Cc2ccc3ncccc3c2)cc1", "inhibition": "inactive"}, {"smiles": "CCOc1ccc(/C=C2N=C(/C=C/c3ccccc3OC)OC\\2=O)cc1", "inhibition": "inconclusive: 10%"}, {"smiles": "CCNc1nc(N2CCOCC2)nc(N2CCC(Cc3ccccc3)CC2)n1", "inhibition": "inconclusive: 19%"}, {"smiles": "CC(=O)N1c2ccccc2NC2=C(C(=O)CCC2)C1c1ccc(N(C)C)cc1", "note": "(centres undefined)", "inhibition": "inconclusive: 17%"}, {"smiles": "CC(C)=CC[n+]1cnc(N)c2[nH]cnc21", "inhibition": "inconclusive: 12%"}, {"smiles": "CC1=C(C(N)=O)C(c2ccc(OCc3ccccc3)cc2)n2nnnc2N1", "note": "(centres undefined)", "inhibition": "inconclusive: 17%"}, {"smiles": "COc1ccc(C(O)=C2C(=O)C(=O)N(C)C2c2cccc(F)c2)cc1", "note": "(centres undefined)", "inhibition": "inconclusive: 14%"}, {"smiles": "Cc1ccc(F)c(NC(=O)CCC(=O)NCC2(CO)CCOCC2)c1", "inhibition": "inactive"}, {"smiles": "CCC1CC(C)(c2csc(Nc3ccccc3)n2)OC1=O", "note": "(centres undefined)", "inhibition": "inactive"}, {"smiles": "Cc1cc(C)cc(N2CCN(Cc3ccc4ncccc4c3)CC2=O)c1", "inhibition": "inconclusive: 19%"}, {"smiles": "Cc1ccc(C2=NC(=O)/C(=C/c3ccsc3)S2)cc1", "inhibition": "inconclusive: 22%"}, {"smiles": "Cc1cccc(-n2ncc3c(Nc4cccc(F)c4)ncnc32)c1", "inhibition": "inconclusive: 14%"}]}]}
